In patent US20040253247A1:
These are yes or no findings as the source states them, for the method shown. Some entries that bind do so weakly or less than the wild type.

By UniProt entry, the sequences of proteins in these tests, tags left out. Residues count along the entry.
UniProt P02770, residues 25-608: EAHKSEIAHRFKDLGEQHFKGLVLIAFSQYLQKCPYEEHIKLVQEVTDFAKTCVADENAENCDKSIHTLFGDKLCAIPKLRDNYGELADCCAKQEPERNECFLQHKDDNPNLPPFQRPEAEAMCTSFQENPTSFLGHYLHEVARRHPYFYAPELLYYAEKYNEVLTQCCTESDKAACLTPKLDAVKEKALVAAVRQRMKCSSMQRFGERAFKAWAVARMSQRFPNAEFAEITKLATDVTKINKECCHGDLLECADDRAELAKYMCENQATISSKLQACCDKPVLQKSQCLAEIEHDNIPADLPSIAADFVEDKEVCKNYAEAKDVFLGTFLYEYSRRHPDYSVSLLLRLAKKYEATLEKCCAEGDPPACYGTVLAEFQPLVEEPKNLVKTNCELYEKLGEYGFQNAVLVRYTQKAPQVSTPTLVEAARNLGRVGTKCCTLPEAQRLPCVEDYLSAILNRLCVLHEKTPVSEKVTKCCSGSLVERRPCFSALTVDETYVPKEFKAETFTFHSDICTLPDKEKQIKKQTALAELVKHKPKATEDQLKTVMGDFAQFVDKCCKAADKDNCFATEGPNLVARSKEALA

biological target: IgG-Fc [IgG part: P01857]; experiment: general note of Table I; phage clone, M13/gIII display, EC50 in its own row

Binder	binding
DLADCSYWLGELVWCSRVEG	binds
KEADCAWHLGELVWCVAGVE	binds
KEARCWYWHGELVWCSDPEE	binds
KEASCSYHLGELVWCVAGVE	binds
KEASCSWHLGELVWCVAGVE	binds
KEASCSYWLGELVWCTEGVE	binds
KEASCSYWLGELVWCDTFDE	binds
KEASCSYWLGELVWCDGLDE	binds
KEASCSYWLGELVWCVGLDE	binds
WVEDCSWHMGELVWCDGGEF	binds
DLADCSWHLGELVWCSRVEG	binds
DLADCSWHLGELVWCVGLDE	binds
WVEDCSWHLGELVWCVGLDF	binds
KVADCAWHMGELVWCTEVEG	binds
GEEDCSYHLGELVMCTELDD	binds
GEEDCAWHLGELVWCSGGDF	binds
WEADCAWHLGELVWCTKVEE	binds

biological target: rat albumin (rat) (UniProt P02770); experiment: phage ELISA

Binder	binding
RNEDPCVVLLEMGLECWEGV [RA]	binds
QMQMSDFCLPQWGCLWGDGY [RB-R3]	binds
KSRMGDFCLPEWGCLWGDEL [RB-R9]	binds
ERQMEDFCLPQWGCLWGDGV [RB-R1]	binds
QRQVVDFCLPQWGCLWGDGS [RB-R14]	binds
DICLPVWGCLW [RC-R1]	binds
DICLPVWGCLW [RC-R2]	binds
DICLPVWGCLW [RC-R3]	binds
DTCVDLVRLGLECWG [RD]	binds
DICLPVWGCLW [RC-R10]	binds
DICLPVWGCLW [RC-R12]	binds
DICLPVWGCLW [RC-R18]	binds
WDDICFRDWGCLWGS [RBC-R7]	binds
MDDICLHHWGCLWDE [RBC-R1]	binds
MDDLCLPNWGCLWGD [RBC-R2]	binds
FEDFCLPNWGCLWGS [RBC-R4]	binds
FEDLCVVRWGCLWGD [RBC-R6]	binds

Binder	binding
WEDLCLPDWGCLWED [RBC-R5]	binds
SEDFCLPVWGCLWED [RBC-R9]	binds
DFDLCLPDWGCLWDD [RBC-R10]	binds
NWDLCFPDWGCLWDD [RBC-R8]	binds
EEDVCLPVWGCLWEG [RBC-R20]	binds
MFDLCLPKWGCLWGN [RBC-R12]	binds
EFDLCLPTWGCLWED [RBC-R13]	binds
MWDVCFPDWGCLWDV [RBC-R15]	binds
EWDVCFPAWGCLWDQ [RBC-R18]	binds
VWDLCLPQWGCLWDE [RBC-R11]	binds
NTCADLVRLGLECWA [RD-R7]	binds
DTCDDLVQLGLECWA [RD-R11]	binds
DTCEDLVRLGLECWA [RD-R5]	binds
DSCGDLLRLGLECWA [RD-R6]	binds
DTCSDLVGLGLECWA [RD-R1]	binds
DLCLRDWGCLW [RC]	binds
CGCVDVSDWDCWSECLWSHGA [RE]	binds
